No constants are given. Whether binding was seen depends on the method and setting. Binding seen in cells or lysates may run through a third protein. A result given as binding can be weak or reduced; the word gives no strength. Sequences can lack the tags named with a protein.
Target: T1, FLAG-Piwi (Drosophila melanogaster) (UniProt Q9VKM1)
T1 sequence: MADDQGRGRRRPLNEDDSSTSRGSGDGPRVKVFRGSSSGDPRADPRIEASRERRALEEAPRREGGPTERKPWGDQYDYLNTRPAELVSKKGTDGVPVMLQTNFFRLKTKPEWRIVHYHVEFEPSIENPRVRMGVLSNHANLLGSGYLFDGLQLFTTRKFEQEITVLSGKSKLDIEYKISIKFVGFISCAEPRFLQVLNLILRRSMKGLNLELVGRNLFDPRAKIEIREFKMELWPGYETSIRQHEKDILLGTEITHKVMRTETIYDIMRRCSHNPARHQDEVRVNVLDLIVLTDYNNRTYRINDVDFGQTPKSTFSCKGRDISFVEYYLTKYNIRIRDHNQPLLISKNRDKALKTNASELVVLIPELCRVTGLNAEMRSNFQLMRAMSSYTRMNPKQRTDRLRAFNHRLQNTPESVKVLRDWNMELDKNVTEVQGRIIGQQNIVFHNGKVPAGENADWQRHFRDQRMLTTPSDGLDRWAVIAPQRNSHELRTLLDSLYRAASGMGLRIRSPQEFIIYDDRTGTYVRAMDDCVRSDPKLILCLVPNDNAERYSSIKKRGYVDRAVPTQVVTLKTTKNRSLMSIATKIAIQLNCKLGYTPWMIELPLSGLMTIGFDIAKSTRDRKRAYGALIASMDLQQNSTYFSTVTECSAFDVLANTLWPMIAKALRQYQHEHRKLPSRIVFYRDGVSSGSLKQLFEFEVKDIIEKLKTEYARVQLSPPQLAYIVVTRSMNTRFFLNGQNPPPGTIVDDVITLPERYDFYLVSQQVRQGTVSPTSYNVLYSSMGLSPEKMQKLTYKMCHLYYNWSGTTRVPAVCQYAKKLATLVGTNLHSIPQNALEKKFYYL
Experiment: co-IP

binding: binds
Substance: TEs are up-1 (TEsup-1; CG31510) (from UniProt Q9VBX4)
